Data published in the supplement of paper PMC10011410.
Values are raw readings; no control value is given beside them.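 Values average three technical replicates, each on its own plate. On all plates, reagent-free control wells corrected for intrinsic cell fluorescence and DMSO-treated wells acted as vehicle controls. No hit or active cutoff is set for these live-cell readings.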

Tests used:
[1] = tested on: U-2 OS; test: AUC of caspase 3/7-positive object count (AUC (object count x time)); higher = more apoptotic or dead cells
Method: (§1)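 Live-cell Incucyte imaging of U-2 OS cells with Caspase-3/7 Green and Cytotox Red reagents. Compounds were tested mostly at 5, 10 and 20 uM, and cells were imaged every 4 h for up to 60 h. Value is the area under the curve of positive object counts over time, per channel: green = caspase 3/7, red = membrane-compromised, overlap = both.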

[2] = tested on: U-2 OS; test: AUC of Cytotox red (membrane-compromised) object count (AUC (object count x time)); higher = more apoptotic or dead cells
Method: as §1

SMILES | AUC of caspase 3/7-positive object count ([1]; 5 µM) | AUC of caspase 3/7-positive object count ([1]; 10 µM) | AUC of caspase 3/7-positive object count ([1]; 20 µM) | AUC of Cytotox red ([2]; 5 µM) | AUC of Cytotox red ([2]; 10 µM) | AUC of Cytotox red ([2]; 20 µM) | AUC of caspase 3/7-positive object count ([1]; 1.25 µM) | AUC of Cytotox red ([2]; 1.25 µM) | AUC of caspase 3/7-positive object count ([1]; 40 µM) | AUC of caspase 3/7-positive object count ([1]; 80 µM) | AUC of Cytotox red ([2]; 40 µM) | AUC of Cytotox red ([2]; 80 µM)
O=S1(=O)C=Cc2ccccc21 | 76.4 | 89.9 | 443 | 45.4 | 71 | 339 | – | – | – | – | – | –
CC[C@@]1(O)C(=O)OCc2c1cc1n(c2=O)Cc2cc3ccccc3nc2-1 | 534 | – | 691 | 597 | – | 751 | 289 | 356 | – | – | – | –
CC(=O)c1c(O)c(C)c(O)c(Cc2c(O)c3c(c(C(=O)C=Cc4ccccc4)c2O)OC(C)(C)C=C3)c1O | 24.4 | 33.5 | 44.5 | 27.8 | 22.5 | 1.51 | – | – | 67.3 | 294 | 0.922 | 0.755
O=S1(=O)CC(N2CCCC2)c2ccccc21 (stereo not drawn) | 43.2 | – | – | 28.4 | – | – | – | – | – | – | – | –
Nc1nc(-c2ccccc2)ns1 | 24 | 51.3 | 47.1 | 21.5 | 42.5 | 52.1 | – | – | – | – | – | –
C=C1[C@@H](C)[C@H]2[C@H](Cc3ccccc3)NC(=O)[C@]23[C@H](OC(C)=O)/C=C/[C@@](C)(O)C(=O)[C@@H](C)C/C=C/[C@H]3[C@@H]1O | 232 | 294 | 368 | 257 | 362 | 357 | – | – | – | – | – | –
C=CC(=O)Nc1cccc(Oc2nc(Nc3ccc(N4CCN(C)CC4)cc3OC)ncc2Cl)c1 | 56.6 | 226 | 91.8 | 36.3 | 323 | 1130 | – | – | – | – | – | –
O=NN(CCCl)C(=O)NCCCl | 29.7 | 36.3 | 30.2 | 65.6 | 70.9 | 66 | – | – | – | – | – | –
CC(C)(C)C(=O)OCOc1cccc2c1C(=O)C1C3C=CC(CC3)C1C2=O (stereo not drawn) | 58.8 | 230 | 520 | 47.2 | 176 | 341 | – | – | – | – | – | –
CC(=O)N[C@@H](CCCCNC(=O)CSCCNC(=O)CCNC(=O)[C@H](O)C(C)(C)COP(=O)(O)OP(=O)(O)OC[C@H]1O[C@@H](n2cnc3c(N)ncnc32)[C@H](O)[C@@H]1OP(=O)(O)O)C(N)=O.O=C(O)C(F)(F)F | 33.9 | 56.4 | 48.2 | 47.2 | 65.3 | 61.3 | – | – | – | – | – | –
CC(C)(N=NC(C)(C)C(=N)N)C(=N)N.Cl.Cl | 29 | 31.8 | 30.8 | 35.5 | 41.6 | 42.7 | – | – | – | – | – | –
ClC1=CC=C(C2=CSC(N/N=C3CCCC/3)=N2)C=C1 | – | – | – | – | – | – | – | – | 34.3 | 39.7 | 15 | 8.14
CC(C)[C@H](C(=O)Nc1ccc(C(=O)NO)cc1)c1ccccc1 | 873 | 909 | 877 | 603 | 540 | 119 | – | – | – | – | – | –
Nc1ccn([C@@H]2O[C@H](CO)[C@@H](O)C2(F)F)c(=O)n1 | 43 | 64.4 | 66.5 | 35.8 | 47.4 | 35.1 | – | – | – | – | – | –
C[C@@]12C(=O)OC(=O)[C@]1(C)[C@H]1CC[C@@H]2O1 | 56.2 | 44.1 | 247 | 61.3 | 60.4 | 264 | – | – | – | – | – | –
CCCCCC[C@H]1C(=O)O[C@H](C)[C@H](NC(=O)c2cccc(NC=O)c2O)C(=O)O[C@@H](C)[C@@H]1OC(=O)CC(C)C | 23.7 | 28.8 | 51.3 | 43.9 | 48 | 60.9 | – | – | – | – | – | –
CNC(=O)Nc1ccc2c(c1)CC[C@@]21OC(=O)N(CC(=O)N(Cc2ccc(F)cc2)[C@@H](C)C(F)(F)F)C1=O | 43.2 | 54.3 | 60.4 | 31.5 | 33 | 42 | – | – | – | – | – | –
CC[C@@H]1/C=C/C=C/C[C@H](C)[C@@H](O)[C@](C)(O)C(=O)[C@H](C)[C@@H](O)[C@H](C)C(=O)[C@H](C)[C@@H](O)[C@H](C)/C=C/C(=O)O[C@H]2[C@@H](C)[C@@H](CC1)O[C@@]1(CC[C@@H](C)[C@@H](C[C@H](C)O)O1)[C@@H]2C | 39.9 | 43.9 | 526 | 60.5 | 54.2 | 505 | – | – | – | – | – | –
O=[N+]([O-])c1cc(Br)c2nsnc2c1Sc1ncnc2nc[nH]c12 | 792 | 1160 | 1430 | 348 | 804 | 1310 | – | – | – | – | – | –
CS(=O)(=O)OCCCCOS(C)(=O)=O | 32.6 | 24.6 | 47.8 | 52.4 | 51.1 | 72.7 | – | – | – | – | – | –
CCc1c2c(nc3ccc(OC(=O)N4CCC(N5CCCCC5)CC4)cc13)-c1cc3c(c(=O)n1C2)COC(=O)[C@]3(O)CC.Cl | 23.8 | 15.9 | 24.6 | 56.7 | 45.6 | 72.6 | – | – | – | – | – | –
C#CC[C@H](c1nc2cc(Cl)ccc2c(=O)n1Nc1ccccc1)N(CCCN)C(=O)c1cccc(Cl)c1F | 219 | 634 | 433 | 217 | 1350 | 1650 | – | – | – | – | – | –
C=CC(=O)N1CCC[C@@H](n2nc(-c3ccc(Oc4ccccc4)cc3)c3c(N)ncnc32)C1 | 105 | 113 | 469 | 96.9 | 45.1 | 196 | – | – | – | – | – | –
CCN(CCO)CCCOc1ccc2c(Nc3cc(CC(=O)Nc4cccc(F)c4)[nH]n3)ncnc2c1 | 115 | 98.3 | 86.9 | 75.5 | 54.6 | 52.8 | – | – | – | – | – | –
Cl.Cl.O=C(O)Cn1nnc(-c2ccc(CN(CCCCOc3ccc(CN4CCCC4)cc3)CCc3ccccc3)cc2)n1 | 40.9 | 46.5 | 65 | 25.5 | 28 | 50.9 | – | – | 448 | 635 | 1030 | 1340
CCOc1cc2ncc(C#N)c(Nc3ccc(OCc4ccccn4)c(Cl)c3)c2cc1NC(=O)/C=C/CN(C)C | 53.5 | 105 | 1120 | 51.2 | 74.1 | 1070 | – | – | – | – | – | –

Some values from the entries so far:
Value of `CCc1c2c(nc3ccc(OC(=O)N4CCC(N5CCCCC5)CC4)cc13)-c1cc3c(c(=O)n1C2)COC(=O)[C@]3(O)CC.Cl` under AUC of Cytotox red ([2]; 10 µM): 45.6
Value of `CC(C)[C@H](C(=O)Nc1ccc(C(=O)NO)cc1)c1ccccc1` under AUC of Cytotox red ([2]; 10 µM): 540
